Assay [1] addresses T1, medium-length N-terminally truncated PHL1 (PHR1-LIKE1) (Arabidopsis thaliana) (UniProt Q8GUN5).
T1 sequence: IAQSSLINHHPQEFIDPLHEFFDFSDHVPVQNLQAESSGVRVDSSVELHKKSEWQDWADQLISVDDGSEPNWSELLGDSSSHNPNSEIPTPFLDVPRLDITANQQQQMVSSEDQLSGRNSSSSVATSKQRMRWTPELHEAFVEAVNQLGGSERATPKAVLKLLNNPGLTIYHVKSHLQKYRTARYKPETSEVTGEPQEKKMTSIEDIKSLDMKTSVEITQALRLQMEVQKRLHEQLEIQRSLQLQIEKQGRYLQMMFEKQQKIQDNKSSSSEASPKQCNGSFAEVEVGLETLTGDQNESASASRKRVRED
Put plainly: native gel or EMSA; truncated proteins translated in vitro alone or cotranslated, EMSA with a probe holding the PHR1 binding sequence P1BS; dimers read from bands of intermediate mobility of the protein-DNA complexes; mock translation mixture as control. For orientation: In EMSA bound probe runs differently from free probe, usually more slowly.

By UniProt entry, the sequences of proteins in these tests, tags left out. Chains listed by the source or under a name are the forms on record and can include a tag or linker. Residues count along the entry.
UniProt Q94CL7, residues 199-409: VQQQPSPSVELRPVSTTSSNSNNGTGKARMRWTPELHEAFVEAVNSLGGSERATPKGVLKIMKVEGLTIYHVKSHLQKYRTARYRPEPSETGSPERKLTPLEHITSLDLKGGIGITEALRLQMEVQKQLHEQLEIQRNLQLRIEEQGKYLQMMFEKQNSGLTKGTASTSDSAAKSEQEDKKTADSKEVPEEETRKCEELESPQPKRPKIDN
Δ-PHR1, PHR1 deletion derivative encompassing amino acid residues 208-362, fused to the GAL4 DNA-binding domain (Q94CL7, residues 208-362): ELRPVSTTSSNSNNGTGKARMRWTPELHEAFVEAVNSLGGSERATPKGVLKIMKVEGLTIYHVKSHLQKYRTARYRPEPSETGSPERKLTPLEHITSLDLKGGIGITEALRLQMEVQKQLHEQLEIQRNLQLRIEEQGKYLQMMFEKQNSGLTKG

Assay [2] concerns the target short N-terminally truncated PHR1 (PHOSPHATE STARVATION RESPONSE REGULATOR 1) (Arabidopsis thaliana) (UniProt Q94CL7). The description is as above.
The target of assay [3] is Δ-PHR1, PHR1 deletion derivative encompassing amino acid residues 208-362, fused to the GAL4 DNA-binding domain (Arabidopsis thaliana) (UniProt Q94CL7). Put plainly: two-hybrid; Gal4 system in S. cerevisiae AH109; BD-ΔPHR1 (pGBKT7) as bait in a screen of a whole seedling cDNA library in pGADT7, confirmed by cotransformation; read on -Trp -Leu medium plus β-gal and on medium lacking Ade, His, Leu and Trp; 30°C, 2-4 days; empty pGADT7 as negative control.

The target in assay [4] is short N-terminally truncated PHL1 (PHR1-LIKE1) (Arabidopsis thaliana) (UniProt Q8GUN5). Nature of the assay: native gel or EMSA; truncated proteins translated in vitro alone or cotranslated, EMSA with a probe holding the PHR1 binding sequence P1BS; dimers read from bands of intermediate mobility of the protein-DNA complexes; mock translation mixture as control.

No constants are given. Whether binding was seen depends on the method and setting. Some entries that bind do so weakly or less than the wild type. For part of these data: Tags and fused reporters may be left off the sequences shown.

On to “short N-terminally truncated PHR1 (PHOSPHATE STARVATION RESPONSE REGULATOR 1) (from UniProt Q94CL7 199-409) (domain or fragment)”, for which the binding result in assay [1] and in assay [2] was “binds” each time.

B1: Δ-PHL1, PHL1 deletion lacking amino acid residues 1-60, fused to the Gal4 activation domain (domain or fragment, UniProt Q8GUN5 61-413)
chain: YLFPSSSGYCNVSAVLPHGRNLQNQPPVSTVPRDRLAMQDCPLIAQSSLINHHPQEFIDPLHEFFDFSDHVPVQNLQAESSGVRVDSSVELHKKSEWQDWADQLISVDDGSEPNWSELLGDSSSHNPNSEIPTPFLDVPRLDITANQQQQMVSSEDQLSGRNSSSSVATSKQRMRWTPELHEAFVEAVNQLGGSERATPKAVLKLLNNPGLTIYHVKSHLQKYRTARYKPETSEVTGEPQEKKMTSIEDIKSLDMKTSVEITQALRLQMEVQKRLHEQLEIQRSLQLQIEKQGRYLQMMFEKQQKIQDNKSSSSEASPKQCNGSFAEVEVGLETLTGDQNESASASRKRVRED
Regarding B1, the binding entry in assay [3] is on record as “binds”.

B2: short N-terminally truncated PHL1 (PHR1-LIKE1) (domain or fragment, UniProt Q8GUN5 211-413)
chain: MVSSEDQLSGRNSSSSVATSKQRMRWTPELHEAFVEAVNQLGGSERATPKAVLKLLNNPGLTIYHVKSHLQKYRTARYKPETSEVTGEPQEKKMTSIEDIKSLDMKTSVEITQALRLQMEVQKRLHEQLEIQRSLQLQIEKQGRYLQMMFEKQQKIQDNKSSSSEASPKQCNGSFAEVEVGLETLTGDQNESASASRKRVRED
In the case of B2, the binding result in assay [1] and in assay [4] was “binds” throughout.

B3: medium-length N-terminally truncated PHL1 (PHR1-LIKE1) (domain or fragment, UniProt Q8GUN5 104-413)
chain: T1 sequence
With B3, the binding result in assay [1] was “binds”.
